PubChem BioAssay AID652243, Drosophila RNAi Screening Center, 2013

- Assay: 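Fly regulators of androgen-dependent reporter output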 (primary screen)
- Cells: Drosophila S2R+ cells
- Reagents: long dsRNA against Drosophila genes
- Timing: 72 h (48 h, then 24 h hormone)
- Conditions: synthetic androgen R1881 at 10 nM for 24 h
- Read-out: 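Per-well raw luminescence of the androgen-driven firefly reporter and of the Renilla control, two replicates each, without normalisation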
- Direction: firefly reporter light: higher = more light from androgen-responsive reporter; Renilla control light: higher = more constitutive control signal (cell number, transfection)
- Hit rule: 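Hit when the log firefly-to-Renilla ratio dropped or increased by a fixed fold versus the mean of GFP or LacZ controls across duplicate plates; lowering cut given as 1.5 and as 3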
- Calls: active = hit: reporter lowered or raised; inactive = no hit
The screen tested about 24,000 reagents; this is an unselected part of those with a known target gene and a result. Over the whole deposit, 246 (1%) were called active. 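Plates not normalised; calls are printed but the firefly/Renilla ratio behind them is not deposited; fold cut for lowering reported inconsistently.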 The raw values are shown without normalisation. Reagents against one gene are numbered here. The record does not give: the amount of reagent.

| gene knocked down | reagent no. | firefly reporter light, replicate 1 | firefly reporter light, replicate 2 | Renilla control light, replicate 1 | Renilla control light, replicate 2 | Call |
| --- | --- | --- | --- | --- | --- | --- |
| Rh2 | 1 | 1.91e5 | 2.17e5 | 2.92e6 | 3.38e6 | inactive |
| Rh2 | 2 | 7.75e5 | 3.68e5 | 1.80e6 | 4.40e5 | inactive |
| phu | 1 | 1.24e5 | 3.41e5 | 2.86e6 | 4.01e6 | active |
| phu | 2 | – | – | – | – | inactive |
| RagA-B | 1 | 63558 | 89700 | 3.20e5 | 4.31e5 | inactive |
| CG17601 | 1 | 2.11e5 | 1.69e5 | 6.06e5 | 4.48e5 | inactive |
| CG1503 | 1 | 1.44e5 | 71577 | 4.29e5 | 4.09e5 | inactive |
| CG5885 | 1 | 6.72e5 | 8.28e5 | 1.62e6 | 2.25e6 | inactive |
| CG5885 | 2 | 9.23e5 | 7.87e5 | 1.43e6 | 1.82e6 | inactive |
| CG5273 | 1 | 3.65e5 | 2.67e5 | 2.79e6 | 2.37e6 | inactive |
| CG1407 | 1 | 9.31e5 | 5.74e5 | 1.03e6 | 1.03e6 | inactive |
| Thor | 1 | 7.51e5 | 8.49e5 | 2.73e6 | 1.77e6 | inactive |
| clumsy | 1 | 1.08e5 | 1.57e5 | 9.86e5 | 1.74e6 | inactive |
| CG31559 | 1 | 35867 | 57724 | 1.47e6 | 1.52e6 | inactive |
| CG31559 | 2 | 33866 | 46253 | 1.31e6 | 9.84e5 | inactive |
| mRpL9 | 1 | 1.35e5 | 1.42e5 | 2.28e6 | 1.77e6 | inactive |
| mRpL9 | 2 | 2.52e5 | 2.98e5 | 6.61e5 | 7.82e5 | inactive |
| Smvt | 1 | 2.75e5 | 3.00e5 | 2.82e6 | 3.84e6 | inactive |
| E(var)3-9 | 1 | 5.15e5 | 7.09e5 | 1.44e6 | 1.85e6 | inactive |
| E(var)3-9 | 2 | 4.12e5 | 4.89e5 | 1.10e6 | 1.10e6 | inactive |
| CG1824 | 1 | 4.72e5 | 4.26e5 | 2.68e6 | 3.66e6 | inactive |
| alphaCOP | 1 | 6.20e5 | 6.38e5 | 1.04e6 | 1.09e6 | inactive |

Just “Renilla control light, replicate 2” (3 entries from above):
mRpL9 #2: 7.82e5
Smvt: 3.84e6
E(var)3-9 #1: 1.85e6

The listing continues.
| gene knocked down | reagent no. | firefly reporter light, replicate 1 | firefly reporter light, replicate 2 | Renilla control light, replicate 1 | Renilla control light, replicate 2 | Call |
| --- | --- | --- | --- | --- | --- | --- |
| CG8026 | 1 | 5.01e5 | 6.27e5 | 1.80e6 | 1.82e6 | inactive |
| CG8026 | 2 | 3.24e5 | 3.14e5 | 1.89e6 | 1.84e6 | inactive |
| Teh3 | 1 | 92008 | 1.32e5 | 9.48e5 | 1.06e6 | inactive |
| Teh3 | 2 | 3.23e5 | 4.59e5 | 8.58e5 | 8.58e5 | inactive |
| CG33301 | 1 | 1.41e5 | 1.23e5 | 8.59e5 | 8.04e5 | inactive |
| CG33301 | 2 | 6.43e5 | 6.39e5 | 1.08e6 | 1.07e6 | inactive |
| Apc | 1 | 1.49e5 | 1.81e5 | 1.88e6 | 2.69e6 | inactive |
| CG3277 | 1 | 1.21e5 | 1.03e5 | 1.04e6 | 9.39e5 | inactive |
| CG3277 | 2 | – | – | – | – | inactive |
| CG3277 | 3 | – | – | – | – | inactive |
| CG34459 | 1 | 79061 | 89859 | 1.64e6 | 1.64e6 | inactive |
| CR33318 | 1 | 5.13e5 | 7.84e5 | 1.17e6 | 2.08e6 | inactive |
| CG9825 | 1 | 3.57e5 | 3.76e5 | 1.94e6 | 1.81e6 | inactive |
| CG9825 | 2 | 1.48e6 | 1.51e6 | 1.55e6 | 1.40e6 | inactive |
| a | 1 | 1.51e5 | 2.45e5 | 1.55e6 | 1.36e6 | inactive |
| a | 2 | 3.05e5 | 1.98e5 | 7.24e5 | 7.42e5 | inactive |
| CG17801 | 1 | 43109 | 50425 | 6.71e5 | 7.23e5 | inactive |
| CG17196 | 1 | 2.28e5 | 2.12e5 | 2.70e6 | 2.45e6 | inactive |
